In the supplement of paper PMC4604168 (melanoma cell lines):
This is one part of the list. Many values rest on one well or one pass, so single values are uncertain.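 Cells were imaged in 1,536-well plates, and nuclei stained with an antibody against cleaved PARP were counted against all DNA-stained nuclei to give the apoptosis fraction. Screening doses were chosen to leave most cells alive, and resting and induced cleaved-PARP levels differ strongly between cell lines.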

How the values were obtained:
Assay in all cases: cleaved PARP positive nuclei fraction relative to DMSO control; melanoma cells; higher = more apoptosis
Conditions in all cases: library dose: low library concentration; 72 h
CBRC034 = test system: CBRC034 (line from a melanoma biopsy)
COLO792 = test system: COLO792
COLO800 = test system: COLO800
COLO829 = test system: COLO829
G361 = test system: G361
IPC-298 = test system: IPC-298
IST-MEL1 = test system: IST-MEL1
LB2518-MEL = test system: LB2518-MEL
LOXIMVI = test system: LOXIMVI
MEL-HO = test system: MEL-HO

C[C@]12O[C@H](C[C@]1(O)CO)n1c3ccccc3c3c4c(c5c6ccccc6n2c5c31)CNC4=O [Lestaurtinib] + C=CCNC1=C2C[C@@H](C)C[C@H](OC)[C@H](O)[C@@H](C)/C=C(\C)[C@H](OC(N)=O)[C@@H](OC)/C=C\C=C(/C)C(=O)NC(=CC1=O)C2=O [Tanespimycin] (first compound 0.004 µM, partner dose 0.002 µM)
cleaved PARP positive nuclei fraction (CBRC034): 66.5% | cleaved PARP positive nuclei fraction (COLO792): 87.6% | cleaved PARP positive nuclei fraction (COLO800): 117% | cleaved PARP positive nuclei fraction (COLO829): 93.2% | cleaved PARP positive nuclei fraction (G361): 90.5% | cleaved PARP positive nuclei fraction (IPC-298): 188% | cleaved PARP positive nuclei fraction (IST-MEL1): 120% | cleaved PARP positive nuclei fraction (LB2518-MEL): 105% | cleaved PARP positive nuclei fraction (LOXIMVI): 123% | cleaved PARP positive nuclei fraction (MEL-HO): 41.5%

O=C(/C=C/c1cccnc1)NCCCCC1CCN(C(=O)c2ccccc2)CC1 + N.N.[Cl][Pt][Cl] [cisplatin] (first compound 0.01 µM, partner dose 1.6 µM)
cleaved PARP positive nuclei fraction (CBRC034): 956% | cleaved PARP positive nuclei fraction (COLO792): 878% | cleaved PARP positive nuclei fraction (COLO800): 403% | cleaved PARP positive nuclei fraction (COLO829): 254% | cleaved PARP positive nuclei fraction (G361): 6570% | cleaved PARP positive nuclei fraction (IPC-298): 670% | cleaved PARP positive nuclei fraction (IST-MEL1): 106% | cleaved PARP positive nuclei fraction (LB2518-MEL): 156% | cleaved PARP positive nuclei fraction (LOXIMVI): 140% | cleaved PARP positive nuclei fraction (MEL-HO): 437%

COc1ccc(C2=N[C@@H](c3ccc(Cl)cc3)[C@@H](c3ccc(Cl)cc3)N2C(=O)N2CCNC(=O)C2)c(OC(C)C)c1 [Nutlin-3] + C[C@]12O[C@H](C[C@]1(O)CO)n1c3ccccc3c3c4c(c5c6ccccc6n2c5c31)CNC4=O [Lestaurtinib] (first compound 0.1 µM, partner dose 0.004 µM)
cleaved PARP positive nuclei fraction (CBRC034): 75.7% | cleaved PARP positive nuclei fraction (COLO792): 93.1% | cleaved PARP positive nuclei fraction (COLO800): 62.2% | cleaved PARP positive nuclei fraction (COLO829): 56.4% | cleaved PARP positive nuclei fraction (G361): 62.8% | cleaved PARP positive nuclei fraction (IPC-298): 83.6% | cleaved PARP positive nuclei fraction (IST-MEL1): 184% | cleaved PARP positive nuclei fraction (LB2518-MEL): 120% | cleaved PARP positive nuclei fraction (LOXIMVI): 186% | cleaved PARP positive nuclei fraction (MEL-HO): 59.1%

CC[C@]1(O)C[C@H]2CN(CCc3c([nH]c4ccccc34)[C@@](C(=O)OC)(c3cc4c(cc3OC)N(C=O)[C@H]3[C@@](O)(C(=O)OC)[C@H](OC(C)=O)[C@]5(CC)C=CCN6CC[C@]43[C@@H]65)C2)C1 [vincristine] + C[As](C)SC[C@H](NC(=O)CC[C@H](N)C(=O)O)C(=O)NCC(=O)O [Darinaparsin] (first compound 0.0001 µM, partner dose 0.4 µM)
cleaved PARP positive nuclei fraction (CBRC034): 67% | cleaved PARP positive nuclei fraction (COLO792): 114% | cleaved PARP positive nuclei fraction (COLO800): 89.2% | cleaved PARP positive nuclei fraction (COLO829): 133% | cleaved PARP positive nuclei fraction (G361): 163% | cleaved PARP positive nuclei fraction (IPC-298): 85.1% | cleaved PARP positive nuclei fraction (IST-MEL1): 98.6% | cleaved PARP positive nuclei fraction (LB2518-MEL): 57.6% | cleaved PARP positive nuclei fraction (LOXIMVI): 77.1% | cleaved PARP positive nuclei fraction (MEL-HO): 96.8%

Cn1c(=O)n(-c2ccc(C(C)(C)C#N)cc2)c2c3cc(-c4cnc5ccccc5c4)ccc3ncc21 + C[As](C)SC[C@H](NC(=O)CC[C@H](N)C(=O)O)C(=O)NCC(=O)O [Darinaparsin] (first compound 0.004 µM, partner dose 0.4 µM)
cleaved PARP positive nuclei fraction (CBRC034): 78.3% | cleaved PARP positive nuclei fraction (COLO792): 126% | cleaved PARP positive nuclei fraction (COLO800): 117% | cleaved PARP positive nuclei fraction (COLO829): 67.3% | cleaved PARP positive nuclei fraction (G361): 138% | cleaved PARP positive nuclei fraction (IPC-298): 88.5% | cleaved PARP positive nuclei fraction (IST-MEL1): 258% | cleaved PARP positive nuclei fraction (LB2518-MEL): 203% | cleaved PARP positive nuclei fraction (LOXIMVI): 77% | cleaved PARP positive nuclei fraction (MEL-HO): 124%

Cc1ccc(Nc2nccc(N(C)c3ccc4c(C)n(C)nc4c3)n2)cc1S(N)(=O)=O [Pazopanib] + C[As](C)SC[C@H](NC(=O)CC[C@H](N)C(=O)O)C(=O)NCC(=O)O [Darinaparsin] (first compound 0.4 µM, partner dose 0.4 µM)
cleaved PARP positive nuclei fraction (CBRC034): 85.4% | cleaved PARP positive nuclei fraction (COLO792): 67.6% | cleaved PARP positive nuclei fraction (COLO800): 94.5% | cleaved PARP positive nuclei fraction (COLO829): 108% | cleaved PARP positive nuclei fraction (G361): 94.4% | cleaved PARP positive nuclei fraction (IPC-298): 146% | cleaved PARP positive nuclei fraction (IST-MEL1): 39.1% | cleaved PARP positive nuclei fraction (LB2518-MEL): 58% | cleaved PARP positive nuclei fraction (LOXIMVI): 375% | cleaved PARP positive nuclei fraction (MEL-HO): 31.1%

N.N.[Cl][Pt][Cl] [cisplatin] + Cn1nnc2c(C(N)=O)ncn2c1=O [temozolomide] (first compound 1.6 µM, partner dose 2 µM)
cleaved PARP positive nuclei fraction (CBRC034): 80.4% | cleaved PARP positive nuclei fraction (COLO792): 112% | cleaved PARP positive nuclei fraction (COLO800): 80.5% | cleaved PARP positive nuclei fraction (COLO829): 121% | cleaved PARP positive nuclei fraction (G361): 131% | cleaved PARP positive nuclei fraction (IPC-298): 44.6% | cleaved PARP positive nuclei fraction (IST-MEL1): 249% | cleaved PARP positive nuclei fraction (LB2518-MEL): 118% | cleaved PARP positive nuclei fraction (LOXIMVI): 125% | cleaved PARP positive nuclei fraction (MEL-HO): 28.7%

C[C@]12O[C@H](C[C@]1(O)CO)n1c3ccccc3c3c4c(c5c6ccccc6n2c5c31)CNC4=O [Lestaurtinib] + CS(=O)(=O)CCNCc1ccc(-c2ccc3ncnc(Nc4ccc(OCc5cccc(F)c5)c(Cl)c4)c3c2)o1 [lapatinib] (first compound 0.004 µM, partner dose 0.8 µM)
cleaved PARP positive nuclei fraction (CBRC034): 29.2% | cleaved PARP positive nuclei fraction (COLO792): 130% | cleaved PARP positive nuclei fraction (COLO800): 50.5% | cleaved PARP positive nuclei fraction (COLO829): 94.3% | cleaved PARP positive nuclei fraction (G361): 117% | cleaved PARP positive nuclei fraction (IPC-298): 67% | cleaved PARP positive nuclei fraction (IST-MEL1): 235% | cleaved PARP positive nuclei fraction (LB2518-MEL): 120% | cleaved PARP positive nuclei fraction (LOXIMVI): 98.4% | cleaved PARP positive nuclei fraction (MEL-HO): 58.7%

Cn1cc(C2=C(c3cn(C4CCN(Cc5ccccn5)CC4)c4ccccc34)C(=O)NC2=O)c2ccccc21 [Enzastaurin] + Cn1c(Nc2ccc(C(F)(F)F)cc2)nc2cc(Oc3ccnc(-c4ncc(C(F)(F)F)[nH]4)c3)ccc21 [CHIR265] (first compound 0.8 µM, partner dose 0.08 µM)
cleaved PARP positive nuclei fraction (CBRC034): 170% | cleaved PARP positive nuclei fraction (COLO792): 101% | cleaved PARP positive nuclei fraction (COLO800): 67.1% | cleaved PARP positive nuclei fraction (COLO829): 96.5% | cleaved PARP positive nuclei fraction (G361): 81.8% | cleaved PARP positive nuclei fraction (IPC-298): 116% | cleaved PARP positive nuclei fraction (IST-MEL1): 59.9% | cleaved PARP positive nuclei fraction (LB2518-MEL): 365% | cleaved PARP positive nuclei fraction (LOXIMVI): 147% | cleaved PARP positive nuclei fraction (MEL-HO): 171%
